## Results of single-concentration screens

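Whole-parasite assay of Trypanosoma brucei over 72 hours; the read-out is not stated. Concentration: 30 µM. Direction is inferred from retests: higher values go with stronger inhibition. Values scatter widely below zero; nearly all retest evidence comes from the higher of the two concentrations used. About 64,000 compounds were tested under these conditions; 1.5% (about 940) showed 50% or more at least once.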

The filed quantity is “Percent Effect” (%). The controls that fix the scale are not given in the record; negative values are as filed. This is an unselected part of the compounds tested.

SMILES | Percent Effect
Cc1cc(NC(=O)CNC2CCc3ncnn3C2)no1 (configuration not stated) | -10.16
CN(Cc1csc(-c2ccccc2)n1)C(=O)CCNS(C)(=O)=O | -0.8888
CC(C)c1ccc(CS(=O)(=O)Cc2nc(N)nc(N(C)C)n2)cc1 | -1.752
Cc1cc(CNC(=O)CCc2ccc(S(N)(=O)=O)cc2)no1 | -11.89
O=C(c1ccc2[nH]c(=O)[nH]c2c1)N1CCC(Nc2cccnn2)CC1 | -14.73
COCCOCCNC(=O)N1CCc2c(F)ccc(F)c2C1 | -35.24
COCCN1CC(C(=O)N(CCN(C)C)Cc2ccc(C)s2)CC1=O (configuration not stated) | -22.22
O=C(c1onc2ccccc12)N1CCC2(CCCNC2)C1 (configuration not stated) | -19.79
COc1cccc(NC(=O)NC2(c3noc(CN(C)C)n3)CCCC2)c1 | -2.428
O=C(c1cnc(C2CC2)s1)N1CCCC1Cn1cccn1 (configuration not stated) | 13.09
C/C=C(\C)CN1CCCn2nc(CNC(=O)C3CCC3)cc2C1 | -40.25
Cc1ccn(-c2ccc(NCc3ccnc(N4CCCCC4)c3)nn2)n1 | 100.1
COCc1c(C(=O)N2CCCC(N(C)Cc3ccccc3)C2)noc1C (configuration not stated) | -42.2
CN(CCC(F)(F)F)Cc1nc2ccccc2c(=O)[nH]1 | -71.9
O=C(CCC1CCN(Cc2ncc[nH]2)CC1)Nc1ccccc1Cl | -16.82
CCn1cc(NC(=O)C2CCN(CC(=O)NC3CCCC3)CC2)cn1 | 2.047
Cc1nn(C)c(Cl)c1C1CCCN1CC(=O)NC1CCCC1 (configuration not stated) | 5.4
c1ccn2c(C3CCCN(c4ncnc5c4CCNC5)C3)nnc2c1 (configuration not stated) | -44.47
Cc1cccc(N2CCC3(CCCN(C(=O)c4cccnc4)C3)CC2)n1.O=C(O)C(F)(F)F.O=C(O)C(F)(F)F | -24.82
O=C(Nc1ccc(Cn2cccn2)cc1)N1CCC2(CC1)OCCO2 | -31.11
OC1CCCN(CCNc2ncc(Cl)cc2F)C1 (configuration not stated) | 5.331
CN(Cc1ccccn1)C1COC2(CCN(Cc3cccnc3)CC2)C1 (configuration not stated) | -2.463
[H][C@@]12CCN(c3cnccn3)C[C@@]1(C(=O)O)CCCN2Cc1cccnc1 | -41.38
Cc1nn(C)cc1-c1cc(C(=O)NCC(C)(C)c2ccccc2F)n[nH]1 | -13.39
COc1ccc(Cc2noc(C3=NN(C)C(=O)CC3)n2)cc1OC | -14.17
[H][C@]12CC[C@]([H])(CN(S(=O)(=O)N(C)C)C1)N(CCC(=O)NCc1ccco1)C2 | -23.62
CS(=O)(=O)c1ccc(CNC2CCCN(c3cccnn3)C2)cc1 (configuration not stated) | -15.65
CC(C)(C)n1ncc(NCC(O)c2ccccc2)c(Cl)c1=O (configuration not stated) | -7.683
c1sc(C2CCCC2)nc1CN1CCn2c(nnc2C2CC2)C1 | -23.12
COC1CCCOC12CCN(C(=O)c1ccc3[nH]nnc3c1)CC2 (configuration not stated) | -3.239
CCn1ncc2c1C(COC)CN(Cc1nccs1)C2 (configuration not stated) | -100.3
CC(=O)N1CCC[C@@H](NCc2ccc(F)cc2)[C@@H]1c1ccc(C)s1 | -19.95
N#Cc1cccc(OC23CCCN(CC2)C3)c1 (configuration not stated) | -13.39
CNC1CCCN(Cc2noc(C3CC3)n2)C1.Cl (configuration not stated) | -8.868
Cc1nsc(N2CCCN(C(=O)CCc3ccsc3)CC2)n1 | -9.479
COc1c(Cl)cc(C(=O)NCc2n[nH]c(C)n2)cc1Cl | -16.63
CCOC(=O)c1cnn(C2CCN(C(=O)CC3CCCC3)CC2)c1N | -6.453
CC(C)CC(=O)NC[C@H]1CC[C@H](C(c2ccccn2)N(C)C)CC1 (some centres not stated) | -15.36
CCCC(O)CN1CC(C)(C)CN(C(=O)c2ccccc2)CC1=O (configuration not stated) | -9.735
COc1c(Br)cccc1CCNC(=O)c1ncoc1C | -50.26
NC(=O)c1ccc2c(c1)nc1n2CCN(Cc2cccnc2)C1 | -1.432
COCc1ccccc1C(=O)NS(=O)(=O)CCCC#N | -2.989
CC(NC(=O)C1CCN(S(N)(=O)=O)CC1)c1cccc(OC(F)F)c1 (configuration not stated) | -27.28
CCc1ccc(CNC(=O)NCc2nnc3n2CCC3)s1 | -9.778
CC(C)CN1CC2(CCN(C(=O)C3CSC(C)(C)C(=O)N3)CC2)CC1=O (configuration not stated) | -75.06
Cc1nc(CN2CCCC2Cn2cncn2)no1 (configuration not stated) | -11.99
CCCOc1ccccc1CN[C@@H]1CCC[C@H]1Cc1cc(C)no1.O=C(O)CC(O)(CC(=O)O)C(=O)O | 97.97
CC(C)NC(=O)C(c1ccccc1)N1CCn2c(nnc2C2CC2)C1 (configuration not stated) | -7.48
Cc1cc2ncn(C(=O)N3CCCC3)c2cc1C | 2.771
O=C(C1CC1)N1CCC(Oc2ccccc2Cl)CC1 | -25.31
CC(C)NC(=O)c1nc(Cn2c(C(F)(F)F)nc3ccccc32)no1 | -25.48
O=C(O)C(F)(F)F.O=C(O)C(F)(F)F.[H][C@@]12CCCO[C@]1([H])[C@H](NC(=O)c1cccnc1)CN(c1ncccn1)C2 | -8.334
CCc1cc(C(=O)N2CCCn3nc(CCC(=O)O)cc3C2)cs1 | -26.93
Cc1ccc(C(C)(O)CNC(=O)CCn2ccnc2C(C)C)o1 (configuration not stated) | -4.625
CN(C(=O)c1ccc(C#N)cc1)C1CCN(c2ccccn2)CC1 | -43.88
Cc1nn(C(C)C)c2cnn(CC(=O)N3CCSCC3)c12 | -49.23
CC[C@H](C)[C@H](NC(=O)Cc1csc(-c2cccc(Cl)c2)n1)C(=O)O | 37.79
CC(C)(C)c1coc([C@@H]2COCCN2Cc2cnc3ccccc3c2)n1 | -14.82
COc1cc(NCCNC(=O)c2ccc3[nH]ccc3c2)cc(OC)c1 | -54.96
COC(=O)NCCC(=O)NC(c1ccc(Cl)cc1)C(F)(F)F (configuration not stated) | 5.577
O=C(CC1CCCC1)N1CCOC(c2nc(-c3ncccn3)no2)C1 (configuration not stated) | -0.1824
[H][C@@]12CN(C(=O)N3CCOCC3)C[C@@]1([H])N(CC(C)C)C(=O)CO2 | -19.57
Cn1cccc1C(=O)OCCNC(=O)c1ccccc1 | 10.3
[H][C@@]12COC[C@@H](CC(=O)Nc3cnccn3)[C@]1([H])CN(C1CCOCC1)C2 | -15.32
Cc1nc(C)n(C2CCCN(C(=O)CCOCC(C)C)C2)n1 (configuration not stated) | -29.06
CC(C)n1[nH]c(=O)c2c1NC(=O)CC2c1ccncc1 (configuration not stated) | -7.397
COc1cc(C)cc(C(C(=O)O)N(C)Cc2ccncc2C)c1OC (configuration not stated) | -7.573
CCS(=O)(=O)NC(CCSC)C(=O)Nc1ccc(F)cc1 (configuration not stated) | -81.58
CCCN(Cc1cccnc1)C(=O)C1CCNC1 (configuration not stated) | -25.35
NC(=O)c1ccc(-c2nc3c(c(=O)[nH]2)CCNC3)cc1 | -0.3545
CNC(=O)COC1COC2(CCN(c3ccc(C)nn3)CC2)C1.O=C(O)C(F)(F)F (configuration not stated) | -37.67
CCc1nc(C2CCCN2Cc2nc3ccccc3o2)no1 (configuration not stated) | -0.3768
O=C(O)C(F)(F)F.O=C(O)C(F)(F)F.[H][C@@]12CN(Cc3cccs3)CCC[C@]1(C(=O)OCC)CN(CC(C)C)C2 | 12.77
[H][C@]12CC[C@]([H])(CN(Cc3cc(=O)[nH]c(=O)[nH]3)C1)N(CC=C(C)C)C2 | -16.12

6 of the entries, repeated:

* CCCN(Cc1cccnc1)C(=O)C1CCNC1 (configuration not stated) : -25.35%
* CC(C)n1[nH]c(=O)c2c1NC(=O)CC2c1ccncc1 (configuration not stated) : -7.397%
* N#Cc1cccc(OC23CCCN(CC2)C3)c1 (configuration not stated) : -13.39%
* Cc1ccn(-c2ccc(NCc3ccnc(N4CCCCC4)c3)nn2)n1 : 100.1%
* CCn1ncc2c1C(COC)CN(Cc1nccs1)C2 (configuration not stated) : -100.3%
* Cc1nn(C(C)C)c2cnn(CC(=O)N3CCSCC3)c12 : -49.23%

Source: ChEMBL document CHEMBL3988442, “University of Dundee, Small-Polar-MMV Screening Library” (2021).